Values from PubChem BioAssay AID720505 (Drosophila RNAi Screening Center, 2013)
Aim: 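Knock-downs that reduce calcium influx once internal stores are emptied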 (primary screen). System: Drosophila S2R+ cells. Knock-down reagent: long dsRNA against Drosophila genes. Conditions: thapsigargin (2 µM) in calcium-free buffer to empty internal stores, then 2 mM calcium added back. Measurement: 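Fluo-4 signal in 384-well plates read on a FLIPR after thapsigargin (2 µM, calcium-free) store depletion and 2 mM calcium add-back; unnormalised mean endpoint per well; screen run twice, selected wells retested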. Scale: calcium signal and retest calcium signal: higher = more calcium entry after store depletion. Call rule: 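Knock-downs counted as hits when calcium entry dropped relative to STIM1 positive and Rho1 negative controls present on each plate; roughly 1500 genes called, with reductions of differing size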. Meaning of the calls: active = called as lowering calcium entry; inactive = not called.
The screen tested about 20,000 reagents; below is a random part of those that have a named target and a result. Over the whole deposit, about 2,100 (10%) were called active. 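Raw plate signals without normalisation; calls rest on control-based scores that were not deposited; replicate 2 separates called from uncalled poorly.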 Names joined by + are all predicted targets of the reagent. Not given: the amount of reagent, the time to read-out.

gene knocked down	dsRNA	calcium signal, replicate 1	calcium signal, replicate 2	retest calcium signal, replicate 1	retest calcium signal, replicate 2	Call
Kots	DRSC16581	78.7	112			active
pont	DRSC17029	129	90.4			inactive
MED17	DRSC16889	132	177			inactive
Ser6	DRSC20574	180	86.5			inactive
CG10338	DRSC02039	92.9	103			inactive
Rab2	DRSC05017	186	96.6			inactive
CG14739	DRSC14959	104	96.1			inactive
CG42329	DRSC00373	148	130			inactive
CG42329	DRSC00682	174	113			inactive
pav	DRSC08730	107	115			inactive
CG34217	DRSC05083	127	155			inactive
CG6790	DRSC16117	101	143			inactive
CG7607	DRSC10889	76.5	78.2			inactive
CG3457	DRSC18509	135	144			inactive
Cox10	DRSC02804	85.7	84.2			inactive
sona	DRSC04089	110	281			inactive
sona	DRSC04574	150	232			inactive
sona	DRSC04575	131	205			inactive
CG10565	DRSC11620	152	114			inactive
Gs1l	DRSC00754	109	115			inactive
Cluap1	DRSC20637	209	96	157	114	inactive
cni	DRSC03512	62.3	70.5			active
CG9514	DRSC20190	122	134			inactive
CG9514	DRSC20191	120	156			inactive
Amacr	DRSC03198	69	98.1			active
Gr21a	DRSC00366	166	156			inactive
CG7483	DRSC16249	45	68.8			active
CG7483	DRSC22432	131	179			inactive
Alg1	DRSC15297	130	279			inactive
Eig71Ed	DRSC11151	75	110			inactive
S-Lap1	DRSC10627	96.6	96.3			inactive
ZnT41F	DRSC04850	124	161			inactive
na	DRSC19639	115	150			inactive
Ir100a	DRSC14329	68.6	99.2	113	102	inactive
CG42240	DRSC18097	102	134	78.1	90.6	inactive
mago	DRSC04703	203	96.7			inactive
Cpr31A	DRSC02779	90.8	102			inactive
CG34195	DRSC06909	189	148			inactive
CG9993	DRSC04599	171	102			inactive
vlc	DRSC04922	197	217			inactive
NKCC	DRSC12140	98.1	89.8			inactive
NKCC	DRSC12311	171	169			inactive
Ars2	DRSC04893	193	120			inactive
CG14752	DRSC06488	133	182			inactive
Polr2M	DRSC15513	172	106			inactive
CG11131	DRSC11636	75.5	118			inactive
CG11131	DRSC21736	94.8	122			inactive
pon	DRSC18823	220	110			inactive
TTLL4B	DRSC00636	129	188			inactive
ACXB	DRSC00845	91.5	133			inactive
Rbm13	DRSC17749	66.5	209			active
Cow	DRSC13601	103	94.2			inactive
Cow	DRSC14680	207	163			inactive
TwdlJ	DRSC15812	68.4	83.6			active
Tdg	DRSC17169	113	141			inactive
ATPsynB	DRSC09659	52.2	65.7			active
Mur29B	DRSC01018	174	120			inactive
Mur29B	DRSC02376	153	165			inactive
heph	DRSC15436	95.7	129			inactive
heph	DRSC16783	82.9	157			inactive
CG31115	DRSC13692					active
CG15579	DRSC18067	288	172			inactive
CalpC	DRSC19873	100	152			inactive
Adgf-D	DRSC16521	147	215			inactive
Lcp4	DRSC07458	121	93.1			inactive
Ir11a	DRSC19699	74.3	101			active

An excerpt from above, showing only “calcium signal, replicate 1”:
ZnT41F [DRSC04850]: 124
na [DRSC19639]: 115
Ir100a [DRSC14329]: 68.6
CG42240 [DRSC18097]: 102
mago [DRSC04703]: 203
Cpr31A [DRSC02779]: 90.8
CG34195 [DRSC06909]: 189
CG9993 [DRSC04599]: 171
vlc [DRSC04922]: 197
NKCC [DRSC12140]: 98.1

Further entries:
gene knocked down	dsRNA	calcium signal, replicate 1	calcium signal, replicate 2	retest calcium signal, replicate 1	retest calcium signal, replicate 2	Call
Idgf4	DRSC18675	151	131			inactive
CG17600	DRSC20638	137	80.7			inactive
CG17600	DRSC20640	139	94			inactive
CG17600	DRSC22753	121	153			inactive
CG33127	DRSC00011	66.3	152			inactive
ATPsynCF6	DRSC14092	184	126			inactive
Tig	DRSC03456	96.5	100			inactive
CG32371	DRSC22209	91.9	229			inactive
CG4631	DRSC02766	63	93.1	137	165	active
CG4631	DRSC22194	117	206			inactive
WRNexo	DRSC16278	195	308			inactive
CG2993	DRSC14284	144	165			inactive
CG2993	DRSC15457	81.9	86.7			inactive
Tsp42En	DRSC06185	99.4	138			inactive
CG16903	DRSC18561	68.3	97.6			active
Brd8	DRSC14866	107	104			inactive
CG10939	DRSC06019	123	119			inactive
CG10939	DRSC21734	102	118			inactive
wrm1 + wrm2	DRSC11007	131	120			inactive
CG12768	DRSC11680	125	187			inactive
CG12768	DRSC23215	96.3	152			inactive
Kyat	DRSC16147	97.9	106			inactive
CG17272	DRSC15211	202	150			inactive
Pfdn4	DRSC09761	116	74.4			inactive
Send1	DRSC00482	151	168			inactive
Idh3g	DRSC15699	120	124			inactive
gkt	DRSC00821	92.8	110			inactive
CG5835	DRSC15886	189	123			inactive
sowah	DRSC09758	147	112			inactive
CG9593	DRSC16508	168	183			inactive
CG6023	DRSC19970	182	152			inactive
Fancl	DRSC14550	50.7	73.5			active
egh	DRSC18771	95.4	130			inactive
CLIP-190	DRSC03283	89	101			inactive
CG34430	DRSC06499	91	126			inactive
CG13501	DRSC04146	152	76.9			inactive
CG8818	DRSC07275	122	136			inactive
Ssl1	DRSC11634	61.3	115			active
CG11470	DRSC14313	171	153			inactive
GCS1	DRSC19744	113	106			inactive
